No constants are given. Whether binding was seen depends on the method and setting. In cells and extracts the contact can be indirect. Some results given as binding are weak or reduced against the parent protein; the word gives no strength.
Experiments:
[1] = target: ALDH2 in cells (Figure S3) (human) (UniProt P05091); assay: co-IP; binding of WT-cGAS and cGAS mutants to ALDH2 in cells (Figure S3A-F); cell line, tags and direction of the IP not shown
[2] = target: ALDH2-WT re-expressed in ALDH2-depleted THP-1 cells (human) (UniProt P05091); assay: co-IP; Flag-IP from THP-1 cells depleted of ALDH2 and re-expressing ALDH2-WT, treated with ISD90 for the indicated time points
[3] = target: endogenous ALDH2 of THP-1 cells (human (endogenous in THP-1)) (UniProt P05091); assay: co-IP; THP-1 whole-cell lysate incubated with an ALDH2-specific antibody overnight at 4 °C, protein A/G beads, washed with NETN buffer; endogenous proteins
[4] = target: HA-cGAS, transfected in HEK293T (human) (UniProt Q8N884); assay: co-IP; HEK293T transfected with the indicated DNA constructs, collected 48 h post-transfection; HA-IP and immunoblot (Figure 3E; Figure 1K)
[5] = target: cGAS stably expressed in HepG2 cells (pLenti-blast-cGAS) (human) (UniProt Q8N884); assay: co-IP; HA-IP from HepG2 cells stably expressing cGAS, treated with FFA for the indicated time points (Figure 6C) or with ISD90 (Figure S5F,G)
[6] = target: ALDH2 in BPH1 cells (Figure S5E) (human) (UniProt P05091); assay: co-IP; BPH1 cells with ISD90 stimulation (Figure S5E); constructs and direction of the IP not shown

Protein sequences, listed by entry. Tags and fused reporters are not part of them. Lines headed by an entry give the natural chain unless they say otherwise; changes in a name come on top. Chains listed by the source or under a name are the forms on record and can include a tag or linker. Residues count along the entry.
ALDH2 in BPH1 cells (Figure S5E) (P05091, residues 18-517): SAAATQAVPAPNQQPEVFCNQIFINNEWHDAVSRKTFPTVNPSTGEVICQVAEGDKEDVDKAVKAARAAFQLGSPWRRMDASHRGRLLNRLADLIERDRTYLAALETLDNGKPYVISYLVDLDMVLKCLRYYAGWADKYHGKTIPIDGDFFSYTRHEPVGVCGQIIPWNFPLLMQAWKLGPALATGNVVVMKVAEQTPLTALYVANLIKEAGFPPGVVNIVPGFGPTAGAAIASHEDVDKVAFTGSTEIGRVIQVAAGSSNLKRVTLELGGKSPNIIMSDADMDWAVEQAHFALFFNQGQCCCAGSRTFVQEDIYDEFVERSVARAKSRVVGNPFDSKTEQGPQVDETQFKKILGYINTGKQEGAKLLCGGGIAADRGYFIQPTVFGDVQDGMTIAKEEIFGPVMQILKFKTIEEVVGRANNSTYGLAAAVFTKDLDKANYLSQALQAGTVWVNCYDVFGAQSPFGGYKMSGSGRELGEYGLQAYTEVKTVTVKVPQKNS
ALDH2-E504K, transfected in HEK293T (P05091, form named): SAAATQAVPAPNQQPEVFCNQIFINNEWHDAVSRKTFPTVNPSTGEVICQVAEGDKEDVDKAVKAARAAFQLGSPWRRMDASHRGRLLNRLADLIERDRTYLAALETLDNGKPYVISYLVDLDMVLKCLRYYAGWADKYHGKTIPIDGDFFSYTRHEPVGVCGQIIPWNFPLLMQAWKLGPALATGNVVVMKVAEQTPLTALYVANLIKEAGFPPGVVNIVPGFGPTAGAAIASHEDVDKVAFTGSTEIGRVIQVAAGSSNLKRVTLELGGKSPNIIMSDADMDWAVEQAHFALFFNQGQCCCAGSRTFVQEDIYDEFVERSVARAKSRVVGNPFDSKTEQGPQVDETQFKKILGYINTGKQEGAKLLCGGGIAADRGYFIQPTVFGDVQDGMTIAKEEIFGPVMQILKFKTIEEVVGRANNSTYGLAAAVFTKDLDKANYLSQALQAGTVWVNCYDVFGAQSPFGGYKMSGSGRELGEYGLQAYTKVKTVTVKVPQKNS
UniProt Q8N884: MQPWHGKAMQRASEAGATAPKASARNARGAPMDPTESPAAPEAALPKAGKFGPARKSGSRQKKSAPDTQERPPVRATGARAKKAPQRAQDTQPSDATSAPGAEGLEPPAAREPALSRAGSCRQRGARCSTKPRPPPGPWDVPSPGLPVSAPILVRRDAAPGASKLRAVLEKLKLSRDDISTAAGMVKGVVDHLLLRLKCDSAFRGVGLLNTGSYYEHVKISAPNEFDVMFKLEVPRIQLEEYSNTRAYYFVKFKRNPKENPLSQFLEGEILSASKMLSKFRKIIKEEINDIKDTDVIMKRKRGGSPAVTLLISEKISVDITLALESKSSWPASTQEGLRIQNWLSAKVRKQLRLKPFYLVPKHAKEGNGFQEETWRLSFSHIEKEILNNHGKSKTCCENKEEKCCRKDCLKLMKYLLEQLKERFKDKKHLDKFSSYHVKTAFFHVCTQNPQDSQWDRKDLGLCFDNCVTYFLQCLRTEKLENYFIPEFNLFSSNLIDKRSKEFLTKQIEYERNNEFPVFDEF
ΔMito-cGAS, mitochondria-localization signal-deleted cGAS mutant (aa161-190 deletion) (Q8N884, form named): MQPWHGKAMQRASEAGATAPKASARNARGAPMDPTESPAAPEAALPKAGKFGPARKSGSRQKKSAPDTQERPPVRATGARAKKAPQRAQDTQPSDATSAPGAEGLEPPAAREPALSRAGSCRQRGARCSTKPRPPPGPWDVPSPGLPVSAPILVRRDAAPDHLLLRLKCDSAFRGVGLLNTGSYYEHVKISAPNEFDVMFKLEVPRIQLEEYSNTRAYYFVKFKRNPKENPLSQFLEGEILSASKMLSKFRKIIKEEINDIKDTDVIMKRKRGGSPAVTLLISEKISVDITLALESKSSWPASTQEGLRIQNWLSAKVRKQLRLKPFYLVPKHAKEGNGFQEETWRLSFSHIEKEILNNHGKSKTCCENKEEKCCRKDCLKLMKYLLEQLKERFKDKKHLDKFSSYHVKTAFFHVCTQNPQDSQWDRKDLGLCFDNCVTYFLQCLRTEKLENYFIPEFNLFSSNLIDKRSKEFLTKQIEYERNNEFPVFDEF

binding [1]	Substance	further results
binds	ΔMito-cGAS, mitochondria-localization signal-deleted cGAS mutant (aa161-190 deletion) (from UniProt Q8N884 1-522)	–
–	endogenous cGAS of THP-1 cells (from UniProt Q8N884 1-522)	binding [2]: binds; binding [3]: binds
binds	cGAS GSAA (G212AS213A), enzymatically deficient (from UniProt Q8N884 1-522)	–
–	WT-ALDH2, transfected in HEK293T (from UniProt P05091 18-517)	binding [4]: binds
–	ALDH2-E504K, transfected in HEK293T (from UniProt P05091 18-517)	binding [4]: binds
binds	cGAS K173A (from UniProt Q8N884 1-522)	–
binds	cGAS R255E, nucleosome-binding deficient (from UniProt Q8N884 1-522)	–
binds	cGAS K414A (from UniProt Q8N884 1-522)	–
binds	cGAS K285A (from UniProt Q8N884 1-522)	–
binds	WT-cGAS, expressed in cells (Figure S3) (from UniProt Q8N884 1-522)	–
–	ALDH2 in HepG2 cells stably expressing cGAS (from UniProt P05091 18-517)	binding [5]: binds
binds	cGAS KKEA (K173E/R176E/K407E/K411A), DNA-binding deficient (from UniProt Q8N884 1-522)	–
–	cGAS in BPH1 cells (Figure S5E) (from UniProt Q8N884 1-522)	binding [6]: binds

Reference: article PMC12697864, “cGAS Inhibits ALDH2 to Suppress Lipid Droplet Function and Regulate MASLD Progression” (Advanced Science, 2025)
